# Source: PubChem BioAssay AID1964107 (National Center for Advancing Translational Sciences (NCATS), 2024)
# Protein sequences, listed by entry. Tags and fused reporters are not part of them. Lines headed by an entry give the natural chain unless they say otherwise; changes in a name come on top.
# UniProt Q8JUX6: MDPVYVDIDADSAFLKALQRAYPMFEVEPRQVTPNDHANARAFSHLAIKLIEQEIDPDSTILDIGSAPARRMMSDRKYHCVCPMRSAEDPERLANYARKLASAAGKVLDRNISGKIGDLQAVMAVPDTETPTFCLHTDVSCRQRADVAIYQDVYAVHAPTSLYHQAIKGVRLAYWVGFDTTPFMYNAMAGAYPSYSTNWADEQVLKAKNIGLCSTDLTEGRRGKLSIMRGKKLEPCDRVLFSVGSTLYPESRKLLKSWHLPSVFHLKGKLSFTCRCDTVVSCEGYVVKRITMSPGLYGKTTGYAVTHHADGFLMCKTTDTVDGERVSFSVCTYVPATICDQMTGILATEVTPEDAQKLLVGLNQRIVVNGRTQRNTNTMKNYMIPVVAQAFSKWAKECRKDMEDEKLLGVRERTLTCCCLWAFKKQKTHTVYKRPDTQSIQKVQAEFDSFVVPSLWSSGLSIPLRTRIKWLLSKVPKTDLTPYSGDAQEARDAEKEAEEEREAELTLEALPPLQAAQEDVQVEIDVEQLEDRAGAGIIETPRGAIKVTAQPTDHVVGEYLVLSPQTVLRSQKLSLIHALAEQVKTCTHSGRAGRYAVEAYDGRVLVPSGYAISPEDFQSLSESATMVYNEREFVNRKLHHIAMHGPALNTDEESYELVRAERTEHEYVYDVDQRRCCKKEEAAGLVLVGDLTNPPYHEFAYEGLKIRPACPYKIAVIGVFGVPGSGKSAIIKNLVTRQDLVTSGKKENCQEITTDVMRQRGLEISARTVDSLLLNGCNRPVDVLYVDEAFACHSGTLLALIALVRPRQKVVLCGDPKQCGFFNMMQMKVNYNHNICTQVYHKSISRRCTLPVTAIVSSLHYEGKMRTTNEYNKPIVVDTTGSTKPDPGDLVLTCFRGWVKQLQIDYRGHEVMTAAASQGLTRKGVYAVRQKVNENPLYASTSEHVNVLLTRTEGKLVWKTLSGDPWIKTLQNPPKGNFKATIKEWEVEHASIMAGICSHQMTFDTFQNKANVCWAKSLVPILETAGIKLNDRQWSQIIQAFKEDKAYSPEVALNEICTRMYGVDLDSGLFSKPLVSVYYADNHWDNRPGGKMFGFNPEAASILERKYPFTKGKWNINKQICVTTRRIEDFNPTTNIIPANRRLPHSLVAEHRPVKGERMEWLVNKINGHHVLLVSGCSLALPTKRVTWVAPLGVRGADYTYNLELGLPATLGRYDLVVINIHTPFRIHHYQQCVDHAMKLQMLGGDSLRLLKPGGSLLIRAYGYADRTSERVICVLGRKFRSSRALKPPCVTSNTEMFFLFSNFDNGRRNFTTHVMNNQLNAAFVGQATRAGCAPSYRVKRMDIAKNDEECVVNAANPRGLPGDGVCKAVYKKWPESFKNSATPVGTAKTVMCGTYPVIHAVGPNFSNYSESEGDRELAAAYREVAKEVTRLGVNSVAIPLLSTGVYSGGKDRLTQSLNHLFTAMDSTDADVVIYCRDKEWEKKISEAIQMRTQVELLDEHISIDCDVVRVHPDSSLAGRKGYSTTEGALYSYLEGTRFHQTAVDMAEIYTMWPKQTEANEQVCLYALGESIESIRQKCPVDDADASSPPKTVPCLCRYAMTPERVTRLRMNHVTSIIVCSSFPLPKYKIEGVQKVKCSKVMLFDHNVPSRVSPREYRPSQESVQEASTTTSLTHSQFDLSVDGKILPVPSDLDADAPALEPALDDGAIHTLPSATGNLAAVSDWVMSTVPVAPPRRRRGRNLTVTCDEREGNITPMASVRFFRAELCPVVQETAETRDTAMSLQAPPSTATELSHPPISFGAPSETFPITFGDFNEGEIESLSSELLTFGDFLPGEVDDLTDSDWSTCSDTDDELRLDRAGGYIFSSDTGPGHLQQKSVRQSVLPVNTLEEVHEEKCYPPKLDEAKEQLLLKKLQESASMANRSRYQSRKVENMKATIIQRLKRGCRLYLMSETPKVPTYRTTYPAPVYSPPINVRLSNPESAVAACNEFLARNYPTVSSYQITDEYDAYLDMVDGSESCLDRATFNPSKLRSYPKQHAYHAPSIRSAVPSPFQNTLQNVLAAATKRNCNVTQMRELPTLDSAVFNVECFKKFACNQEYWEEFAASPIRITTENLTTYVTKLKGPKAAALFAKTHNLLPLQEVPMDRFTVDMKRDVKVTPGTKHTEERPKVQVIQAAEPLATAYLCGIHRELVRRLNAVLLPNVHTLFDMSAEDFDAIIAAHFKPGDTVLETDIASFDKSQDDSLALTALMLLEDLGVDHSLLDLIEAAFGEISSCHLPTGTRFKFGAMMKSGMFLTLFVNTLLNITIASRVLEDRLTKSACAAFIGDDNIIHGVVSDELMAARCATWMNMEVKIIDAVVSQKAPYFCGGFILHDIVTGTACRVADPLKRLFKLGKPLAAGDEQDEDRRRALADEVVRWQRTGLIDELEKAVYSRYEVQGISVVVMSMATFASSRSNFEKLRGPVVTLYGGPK
# What follows is the remainder of the data, with few or none of the hits. Inconclusive results are not listed. Active and inactive are the calls of the source. The call rests on the fitted dose curve.
# Target: Polyprotein P1234 (Chikungunya virus (strain S27-African prototype)) (UniProt Q8JUX6)
# Experiment: Primary qHTS for inhibitors of NSP2Pro chikungunya virus (CHIKV); further: nearly all actives have a fitted effect of over 60% in size
# Settings: FRET peptide cleavage, fluorescence 1 h; at 24.9 µM (top of the series)
# Excerpt: PI: Natalia J. Martinez Ph.D. National Center for Advancing Translational Sciences (NCATS), National Institute of Health (NIH), Rockville, Maryland Chikungunya virus (CHIKV) is a mosquito-borne RNA virus that has emerged as one of the most important global arboviral threats in the last decade. Although the first CHIKV vaccine has recently been FDA approved for use in healthy adults at increased risk, to date, there are no available antiviral drugs for CHIKV infection. CHIKV nsP2 protease plays a crucial role in the processing of the viral polypeptide precursor to release enzymes required for viral replication, thus making it a promising drug target for antiviral discovery. Here, we established a high-throughput pipeline to identify small molecule inhibitors of nsP2 proteolytic activity. The pipeline is composed of a suite of 1,536-well in vitro assays to support quantitative high-throughput (qHTS) screening campaigns. Specifically, we developed a fluorescence resonance energy transfer (FRET)-based assay using a fluorogenic peptide substrate encompassing an endogenous cleavage site and purified recombinant protease domain (nsP2pro). Using this assay, we interrogated ~37,000 small molecules, including those in drug repurposing libraries as well as chemically diverse and medicinal chemistry-friendly compounds. Hits were selected for follow-up validation against full-length nsP2 and an additional peptide. FRET-based 1,536-well assays for papain, hepatitis C virus NS3-4A, and human furin proteases were implemented to characterize compound selectivity. […] Novel compounds were identified to be potential nsP2 inhibitors and molecular docking analyses were performed to explain the binding mode of selected hits. In vitro antiviral activity was evaluated for a subset of compounds using a high-throughput CHIKV infection assay. To our knowledge, the pipeline presented here is unprecedented for CHIKV antiviral discovery research.
# PROTOCOL TABLE (as described by Inglese J, Shamu CE and Guy RK. 2007) SEQUENCE No. (e.g., 1, 2, 3, etc.); […] (e.g., Cells, Incubation, Reagent, etc.); VALUE; DESCRIPTION. 1; Control / Compound; 20 nL; Echo 655 acoustic dispenser, Greiner 1536-well solid bottom black plate. 2; Enzyme; 4 uL; BioRAPTR FRD liquid dispenser (Beckman Coulter). 3; Incubation; 15 min; room temperature. 4; Reagent; 4 uL; 2.5 uM Peptide 2 substrate. 5; Incubation; 1 hr; room temperature. 6; Detection; Fluorescence; WiewLux microplate reader (PerkinElmer), 525 nm excitation, 598/25 nm emission. NOTES (numbers refer to sequence numbers above). 1. Briefly, 20 nL DMSO, positive control ZnAc (20nM final concentration), and test compounds were transferred into a 1,536-well solid bottom black plate (789176-F, Greiner One) via Echo 655 acoustic dispenser (Beckman Coulter). For primary screens, compounds were tested at 7 concentrations, 1:3 dilution points ranging from 25 uM to 34 nM. Follow-up confirmatory screens were carried out at 11 concentrations, 1:3 dilution points from 25 uM to 0.42 nM. 2. […] After 1 hour, plates were immediately read on a ViewLux high-throughput CCD imager (Exposure = 10 sec, Gain = High, Speed = Slow, Binning = 2X). The above assay was also incorporated in the NCATS HTS facility41, which allowed for robotic liquid and compound dispensing, microplate handling, and fluorescence reading.. […]
# On the % scale 0 is the no-effect control and ±100 the full control effect.
row,Compound,"activity change, negative = inhibition"
1,CN1[C@@H]2CC(OC(=O)[C@H](CO)c3ccccc3)C[C@H]1[C@@H]1O[C@@H]12 (stereo not given in full),inactive: 1.97%
2,CN(C)/C(N)=N/C(=N)N,inactive: -6.73%
3,C[N+]1(C)CCC(OC(=O)C(O)(c2ccccc2)C2CCCC2)C1 (stereo not given),inactive: 15.4%
4,Cc1cnc(C(=O)NCCc2ccc(S(=O)(=O)NC(=O)NC3CCCCC3)cc2)cn1,inactive: 18.7%
5,O=C(c1ccccc1)c1ccccc1,inactive: -1.41%
